Where a name gives a salt, the structure may show the parent alone. This is one part of the list. Hit calls seldom repeat between salt and free forms of one compound.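 Kinases were expressed as nanoluciferase fusions in K562 cells and luminescence was read every 4 h between 2 and 18 h as percent of control, DMSO set to 100% and a positive control to 0%. A time point counts as decreased when the signal drops significantly (2 sigma). The hit call is the authors' own, does not follow from the count of time points alone, and its rule is not shown.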

Protein sequences, listed by entry. Tags and fused reporters are not part of them.
UniProt P11362, whole entry, looked up: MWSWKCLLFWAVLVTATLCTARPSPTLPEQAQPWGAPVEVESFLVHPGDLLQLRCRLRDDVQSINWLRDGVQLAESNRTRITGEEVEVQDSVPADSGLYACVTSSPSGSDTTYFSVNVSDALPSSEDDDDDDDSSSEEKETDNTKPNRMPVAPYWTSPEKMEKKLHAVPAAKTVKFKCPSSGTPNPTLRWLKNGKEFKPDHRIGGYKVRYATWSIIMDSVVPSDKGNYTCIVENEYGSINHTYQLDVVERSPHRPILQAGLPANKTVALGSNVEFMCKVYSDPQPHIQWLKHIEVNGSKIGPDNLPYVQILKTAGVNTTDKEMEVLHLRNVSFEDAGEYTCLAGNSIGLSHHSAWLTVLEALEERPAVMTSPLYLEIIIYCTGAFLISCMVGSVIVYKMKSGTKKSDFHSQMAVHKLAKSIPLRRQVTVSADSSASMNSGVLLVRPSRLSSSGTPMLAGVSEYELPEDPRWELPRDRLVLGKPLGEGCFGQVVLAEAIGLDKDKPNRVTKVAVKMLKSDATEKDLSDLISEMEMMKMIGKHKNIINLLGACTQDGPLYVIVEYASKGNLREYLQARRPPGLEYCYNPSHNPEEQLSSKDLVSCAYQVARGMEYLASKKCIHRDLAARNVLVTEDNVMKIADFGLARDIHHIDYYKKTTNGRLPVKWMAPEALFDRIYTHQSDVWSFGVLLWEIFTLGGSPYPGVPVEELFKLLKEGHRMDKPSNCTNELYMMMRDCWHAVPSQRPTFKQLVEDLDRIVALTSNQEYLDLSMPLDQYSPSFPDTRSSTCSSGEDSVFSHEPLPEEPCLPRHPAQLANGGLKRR

The target of this assay is FGFR1 (UniProt P11362). Kind of assay: kinase-Nluc reporter destabilization hit call (1 = scored as downregulated) (binary); higher = compound decreases kinase abundance. The following applies: K562; 2-18 h.
Take `CC1=C[C@]23C(=O)[C@@H](C=C(CO)[C@@H](O)[C@]2(O)[C@H]1O)[C@H]1[C@@H](C[C@H]3C)C1(C)C` [Ingenol] (10 µM): the “kinase-Nluc reporter destabilization hit call” value was inactive: 0.
For `C=C[C@H]1CN2CC[C@]3(C(=O)Nc4ccccc43)[C@@H]2C[C@@H]1/C(=C\OC)C(=O)OC` [Corynoxeine] (2 µM) the value was inactive: 0; for `O=C(O)c1sc2cc(Cl)ccc2c1Cl` (10 µM), inactive: 0; for `C[C@H]1CC[C@]2(NC1)O[C@H]1C[C@H]3[C@@H]4CC[C@H]5C[C@@H](O)CC[C@]5(C)[C@H]4CC[C@]3(C)[C@H]1[C@@H]2C` [Tomatidine (hydrochloride)] (10 µM), inactive: 0.
Regarding `O=C1C=CC[C@@H]2[C@H]3CCCN4CCC[C@@H](CN12)[C@@H]34` [Sophocarpine (monohydrate)] (2.5 µM), the “kinase-Nluc reporter destabilization hit call” value was inactive: 0.
On to `Cc1n[nH]cc1-c1cc2nc([C@@H]3CC4CCN3CC4)[nH]c(=O)c2s1` [Simurosertib] (2.5 µM), for which the “kinase-Nluc reporter destabilization hit call” value was inactive: 0.
With `O=C(N[C@@H](COc1ccc2[nH]c(=O)[nH]c2c1)c1ccccc1)c1cccn(Cc2ccc(F)c(F)c2)c1=O` (2.5 µM), the “kinase-Nluc reporter destabilization hit call” value was inactive: 0.
For `O=C(/C=C/c1ccccc1)OC[C@H]1O[C@@H](O[C@@H]2OC=C[C@H]3[C@H](O)[C@@H]4O[C@]4(CO)[C@@H]23)[C@H](O)[C@@H](O)[C@@H]1O` [Picroside I] (10 µM) the value was inactive: 0.
Take `C[C@@H]1CC[C@H]2[C@@H](C)C(=O)O[C@@H]3O[C@@]4(C)CC[C@@H]1[C@]32OO4` [Artemisinin] (10 µM): the “kinase-Nluc reporter destabilization hit call” value is inactive: 0.

The record behind these values is the supplement of paper PMC12823440, “Inhibitors supercharge kinase turnover through native proteolytic circuits” (Nature, 2025).
